# Assay results published in the supplement of paper PMC3334620.
# The full ranking holds about 33,000 sequences; the median of “E-score (-0.5 to 0.5)” is about -8e-05, and the highest 2% start at about 0.23. The list shows a part of the results.
# Biological target: T1, Nrg2 (UniProt P38082)
# T1 sequence: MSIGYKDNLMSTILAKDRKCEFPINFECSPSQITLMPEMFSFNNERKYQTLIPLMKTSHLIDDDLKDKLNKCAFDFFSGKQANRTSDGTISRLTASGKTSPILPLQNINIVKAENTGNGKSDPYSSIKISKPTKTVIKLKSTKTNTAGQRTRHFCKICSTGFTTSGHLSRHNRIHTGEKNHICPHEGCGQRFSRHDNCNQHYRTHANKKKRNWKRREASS
# Experiment: PBM E-score (8-mer binding enrichment) (E-score (-0.5 to 0.5)); higher = stronger / more preferred TF binding
# Conditions: protein concentration: 100 nM; construct: GST-full length
# How it was run: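 Full-length yeast transcription factors or their DNA-binding domains, GST-tagged and expressed with PURExpress, were applied at about 100-200 nM to universal all-10-mer Agilent arrays. These arrays had been made double-stranded by primer extension on fresh or once-stripped slides. Detection used fluorescent anti-GST, normalisation used masliner, and E-scores for ungapped eight-base words pooled with reverse complements came from the Universal PBM Analysis Suite.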
row,Sequence,PBM E-score
1,CATTCAAA,0.149
2,AGCTCCCG,-0.258
3,GCTCCGTA,-0.165
4,CACAGTCG,-0.141
5,ATGCAACA,0.149
6,TATATCCA,0.113
7,AACCAGGG,0.176
8,AGAATTTG,-0.047
9,GTGTCAAC,-0.0626
10,AAAGCTGG,-0.106
11,GCGGACAC,-0.0599
12,GCCTATAA,-0.0781
13,AACCCAGC,-0.18
14,GCCTCAGA,-0.0665
15,CGAACTCC,0.0319
16,CAACCCCG,-0.0267
17,AATTGTCT,0.077
18,CAATTTTA,0.125
19,AGGGTTGG,0.113
20,TACCGATA,-0.0936
21,CAGGCGCC,0.0447
22,AAGCGCAC,0.0375
23,GCCATAAC,-0.119
24,CTTGATAC,-0.0285
25,GGACACCA,-0.0284

row,Sequence,PBM E-score
1,GAGCACTC,-0.0321
2,ATGTTAAG,-0.0338
3,GGTCTGGA,-0.166
4,GAAATCCC,-0.0476
5,ACGAGCTA,-0.0222
6,CCTAAAAC,-0.0756
7,AGGATTAC,-0.0582
8,ATCGCCAC,0.224
9,CTTCCACA,0.0194
10,TACTCATA,-0.0491
11,AACGAAAC,0.117
12,GGGCCCTA,0.121
13,GGCGTCAC,-0.11
14,AAACTTTG,0.0472
15,AACATCTC,0.00055
16,GTAACCTA,0.0807
17,GCTCCAAC,-0.0456
18,ACGATCAG,0.0391
19,TGAAAGCA,0.195
20,CTGAGCCA,-0.0665
21,CCCAGAAG,-0.0851
22,AGCCTTGG,-0.0947
23,CAACCAGA,0.098
24,AACTAGTA,0.107
25,AGAATACT,0.0471

row,Sequence,PBM E-score
1,AAGTGTCC,0.00599
2,AACGAGTT,-0.139
3,CAACTAAA,0.126
4,ATGTATGA,0.144
5,GCACTCTA,0.0909
6,GCCATCAC,-0.0887
7,CCCATTGA,-0.0927
8,CGAGGCTA,-0.133
9,CAAGTAAC,0.0558
10,GCAAACAA,0.193
11,AGTCAAAC,-0.119
12,CAACGTTG,0.0615
13,GGCGTCCA,-0.12
14,AATTCGGA,0.152
15,CTCGTTAA,-0.0264
16,ACGTTTAA,0.162
17,ATCTTTGC,0.133
18,GCTTTACA,-0.0981
19,ACATAGGG,0.104
20,GATAAACA,0.0987
21,CGGATCAG,-0.0432
22,CAACATCG,0.11
23,ACGGGTAT,0.0644
24,GGCAACTA,0.194
25,AGCCAACG,-0.0609

row,Sequence,PBM E-score
1,CCTCGAGC,0.267
2,CAGAACAA,0.223
3,GACATATC,0.0718
4,AGCGAACT,0.0473
5,CCAGGGCA,0.175
6,CCCAGGAG,-0.225
7,ATAAGGTC,0.206
8,AGTACTTA,-0.0757
9,ACGGGATA,0.0878
10,GCAACTTA,0.1
11,CCCTCGAA,-0.126
12,CATAGCCG,-0.0321
13,ACCACTAC,-0.106
14,GTGCTAAA,-0.0358
15,TCGGAAAA,0.0848
16,AGTTCGAC,0.0275
17,CGTGCACA,-0.129
18,AATGACCA,0.154
19,ATGCATTC,0.1
20,GCTCCGCA,-0.0443
21,CCATACCG,0.00784
22,ATAGGGCA,-0.0243
23,AACAGCAT,0.0901
24,GACCGTCA,-0.0505
25,GCATGACC,-0.122

row,Sequence,PBM E-score
1,AGTACCTA,0.0211
2,TATGAATA,0.142
3,CACTTTCA,0.00493
4,GTAAACAC,-0.0176
5,AGTTAACA,0.166
6,GACGCCGA,0.15
7,GCCGGGAC,-0.264
8,CCACCAGC,-0.0443
9,AGGAGCGG,-0.236
10,AAGGCCAC,-0.0803
11,GGAGGTAC,-0.177
12,ATGCCACA,0.0993
13,CCCCATTC,0.0034
14,TAATCATA,0.0364
15,CGAGTTCC,0.0649
16,GAAACTGC,-0.0363
17,CGAATTAC,-0.0465
18,GCCCGCTA,-0.233
19,TGATGACA,0.0593
20,TCCCGCGA,0.066
21,GGCGAACC,0.086
22,CAAAACTC,0.0587
23,CGCCGTAG,0.0232
24,GAGATATC,0.282
25,ACTTATGC,0.0733

row,Sequence,PBM E-score
1,AGAGAGCA,-0.117
2,CGATACAA,0.162
3,TTAACAAA,0.094
4,ACCAATAC,0.167
5,GCGTCGCA,-0.0916
6,CACAAATA,0.164
7,CCGCGCGG,0.368
8,CGGGTCCA,0.0193
9,AGGGTGCG,0.0103
10,ACAATACA,0.148
11,ACTAGTGG,0.123
12,AGTCTGTC,-0.0879
13,AGGTGTGA,-0.0848
14,AGAGACGG,-0.0426
15,ATAGCAAC,0.0732
16,AAGAGGGA,-0.0301
17,TCGCCGCA,0.0795
18,CGACGCAA,0.0136
19,ACAGAGAG,-0.115
20,AGCGTCGG,-0.0319
21,TAATACCA,0.178
22,AACTTCTA,0.0496
23,CCAGTTTA,0.0365
24,ACGAGACC,0.043
25,CGCAGGCG,-0.167

row,Sequence,PBM E-score
1,CCTCGTAA,0.216
2,AGCGATAG,-0.11
3,CCATGTTA,0.0626
4,TAGGCGAA,0.00515
5,AGGACCTA,0.114
6,AACAACGA,-0.0427
7,CAGGGCGG,-0.0602
8,AATGACAA,0.189
9,AGGTCACA,-0.0671
10,GCGGTCAC,-0.0959
11,AACCGCTA,-0.0673
12,CGTCAAAC,-0.102
13,ATCAATAA,0.165
14,AAGTCGAA,-0.112
15,CGCTGCGC,-0.145
16,CTTTGAAA,0.0384
17,TCAGTCCA,-0.209
18,GCTGTCCA,0.109
19,AAGCTAGT,0.0156
20,AACCAATT,0.176
21,CCAGTTCC,0.00517
22,TATAGCCA,0.146
